Results on 55 compounds are retold here after PubChem BioAssay AID1487 (National Center for Advancing Translational Sciences (NCATS), 2009).

The list shows a part of the results. These are further read-outs of the screen, such as a control signal, another cell line or another target. No call is given for them. Most of these compounds were active or inconclusive in the main read-out, so they are no random draw. Words in brackets tell the shape of the fitted curve; partial curves, single points and poor fits give uncertain potencies.

The test is described as follows: qHTS Assay for Modulators of Lamin A Splicing. The settings on record: HeLa LMNA splicing GFP/RFP minigene ratio, 48 h. Put shortly: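 S3 HeLa cells stably expressing lamin A-EGFP splicing minigene plus DsRed2, 600 cells/well, 48 h compound exposure at 37C. Laser-scanning cytometry; analysed as GFP (500-530 nm)/RFP (575-640 nm) total intensity ratio; 0.5% DMSO vehicle.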

Where [1] appears, read: measured here: GFP splicing reporter channel.
[2] abbreviates: measured here: RFP viability control channel.

In the case of `O=C(CCNC(=O)Cn1ccc2ccccc2c1=O)NCC1CCCC1c1ccccc1` (stereo unspecified), the AC50 runs as follows: under setting [1], 28.2 µM [rising, partial curve, poor fit]; under setting [2], 11.2 µM [rising, partial curve, poor fit].
Consider `Cc1cccc(C)c1NC(=O)N1CC=C(n2c(=O)[nH]c3ccccc32)CC1`, for which the AC50 reads like this: under setting [1], 3.98 µM [falling, full curve, poor fit]; under setting [2], 6.31 µM [falling, single point].
For the compound `CN(C)Cc1ccccc1-c1nc(N(C)C)c2ccccc2n1`, the AC50 under setting [1] is 35.5 µM [falling, single point].
For `CN=c1nc(-c2ccccc2)n(-c2ccccc2)s1`, the AC50 is 35.5 µM [falling, partial curve, poor fit] under setting [1] and 15.8 µM [falling, partial curve] under setting [2].
Consider `COc1ccc(Cl)cc1NC(=O)CSc1nnc(Cc2cccn2C)n1-c1ccc(F)cc1`, for which the AC50 under setting [2] was 10 µM [rising, partial curve, poor fit].
Same read-out and setting: in the case of `COc1ccc(Cl)cc1NC(=O)C(C)N(C)Cc1ccc(C(F)(F)F)cc1` (stereo unspecified) it was 35.5 µM [rising, single point]; in that of `CC1CCc2nc(NC(=O)CN3CCN(c4ccccc4)CC3)sc2C1` (stereo unspecified), 22.4 µM [rising, single point]; in that of `O=C(c1cccc(C(=O)N2CCN(c3ccccc3)CC2)c1)N1CCN(c2ccccc2)CC1`, 14.1 µM [rising, single point].
With `CC1(c2ccccc2)NC(=O)N(Cc2ccc([N+](=O)[O-])cc2)C1=O` (stereo unspecified), the AC50 runs as follows: under setting [1], 3.55 µM [rising, single point]; under setting [2], 7.94 µM [rising, partial curve, poor fit].
On to `NN/C(=C\[N+](=O)[O-])Nc1ccc(Cl)cc1`, for which the half-maximal activity concentration (AC50) under setting [1] was 35.5 µM [falling, single point].
In the case of `Cc1ccc(C(C(=O)NCc2ccccc2)N(Cc2cccs2)C(=O)c2ccc3c(c2)OCCO3)cc1` (stereo unspecified), the AC50 under setting [1] was 35.5 µM [rising, single point] and the concentration at half-maximal activity (AC50) under setting [2] was 20 µM [rising, partial curve, poor fit].
In the case of `CC(Sc1cccc[n+]1[O-])C(=O)Nc1cccc(S(=O)(=O)N2CCOCC2)c1` (stereo unspecified), the concentration at half-maximal activity (AC50) under setting [2] was 0.0562 µM [rising, full curve, poor fit].
Same read-out and setting: with `N#CCCn1cc(/C=N/NC(N)=S)c(-c2ccc(Br)cc2)n1` the figure was 17.8 µM [falling, partial curve]; with `O=C(c1ccc(S(=O)(=O)c2ccccc2)cc1)N1CCCCCC1`, 11.2 µM [rising, single point].
Turning to `CC(C)OC(=O)c1c(NC(=O)CCn2nnc3ccccc32)sc2c1CCCC2`, the AC50 is, setting by setting: under setting [1], 15.8 µM [rising, single point]; under setting [2], 22.4 µM [rising, single point].
On to `c1csc(C2C3=C(Nc4ncnn42)c2ccccc2OC3)c1` (stereo unspecified), for which, under setting [2], the AC50 is 5.01 µM [rising, partial curve].
The same measure, in the same setting: with `O=C(CSc1nnc(CN2CCCCCC2=O)n1-c1ccccn1)NCC(F)(F)F` the figure was 10 µM [falling, partial curve, poor fit].
For the compound `C=CCOC(=O)C1=C(C)NC(SCC(=O)Nc2ccccc2)=C(C#N)C1c1ccco1` (stereo unspecified), the AC50 under setting [1] was 35.5 µM [rising, single point] and the half-maximal activity concentration (AC50) under setting [2] is 31.6 µM [rising, single point].
Regarding `CCC(=C(CC)c1ccc(O)cc1)c1ccc(O)cc1`, the half-maximal activity concentration (AC50) was 7.94 µM [falling, partial curve] under setting [1] and 7.94 µM [falling, partial curve] under setting [2].
In the case of `CC(C)C(NC(=O)c1ccccc1F)C(=O)OCC(=O)c1ccc(F)cc1` (stereo unspecified), under setting [1], the half-maximal activity concentration (AC50) was 2.51 µM [rising, full curve].
The same measure, in the same setting: with `C/C(=N\NC(=O)CN(c1ccccc1)S(C)(=O)=O)c1ccccc1O` the figure was 0.0224 µM [falling, full curve, poor fit].
Regarding `Cc1cc2cc(CNC(=O)c3ccc4c(c3)OCO4)ccc2[nH]1`, the AC50 was 35.5 µM [rising, single point] under setting [1] and 31.6 µM [rising, single point] under setting [2].
`O=C(C1CCC1)N(CCc1ccccc1)Cc1nc2ccccc2c(=O)[nH]1`: the half-maximal activity concentration (AC50) under setting [1] was 0.0224 µM [rising, full curve, poor fit] and the AC50 under setting [2] is 22.4 µM [rising, partial curve, poor fit].
On to `O=C(O)c1c(-c2ccccc2)c(-c2ccccc2)nc2ccccc12`, for which the concentration at half-maximal activity (AC50) under setting [2] was 0.0501 µM [rising, full curve].
With `S=C(NCCc1ccccc1)Nc1ccc(Cl)cc1Cl`, the AC50 under setting [2] was 12.6 µM [rising, partial curve].
Still for that read-out and setting: with `CCOc1ccc(N=c2scc(-c3ccccc3)n2CCO)cc1` the figure was 22.4 µM [rising, single point].
Same read-out and setting: in the case of `O=C(Nc1nc(-c2ccc(S(=O)(=O)N3CCCC3)cc2)cs1)c1cccs1` it was 2.24 µM [rising, full curve].
`O=c1[nH]c2ccc(S(=O)(=O)N3CCC(Cc4ccccc4)CC3)cc2o1`: the concentration at half-maximal activity (AC50) is 11.2 µM [rising, partial curve, poor fit] under setting [1] and 14.1 µM [rising, partial curve] under setting [2].
For the compound `CCC(=O)Nc1ccc(C(=O)N/N=C/c2c(C)[nH]c3ccccc23)cc1`, the AC50 under setting [1] was 31.6 µM [falling, single point].
Still for that read-out and setting: in the case of `CCOc1nc(C)ccc1-c1noc(-c2ccccn2)n1` it was 14.1 µM [rising, single point].
For `COc1ccc(C(=O)NC(Cc2ccc(OC(=O)c3ccc(OC)cc3)cc2)C(=O)O)cc1` (stereo unspecified), under setting [2], the AC50 was 0.0126 µM [falling, full curve, poor fit].
On the same count and under the same terms, with `CCSc1ccc(C(=O)Nc2cccc(C)n2)cc1[N+](=O)[O-]` the figure was 0.0158 µM [falling, full curve, poor fit]; with `O=C(/C=C/c1cccc([N+](=O)[O-])c1)Nc1cccc(NC(=O)c2cccs2)c1`, 22.4 µM [rising, single point].
With `CCOC(=O)C(C(=O)OCC)C(Nc1cccc(Br)c1)c1ccccc1` (stereo unspecified), the AC50 is 15.8 µM [falling, partial curve] under setting [1] and 20 µM [falling, partial curve] under setting [2].
As to `CC1CCCCN1C(=O)CSc1nc(C2CC2)nc2c1cnn2-c1ccccc1` (stereo unspecified), the half-maximal activity concentration (AC50) under setting [1] was 3.98 µM [rising, single point].
Still for that read-out and setting: with `O=C(NCCc1ccccn1)c1ccc(NS(=O)(=O)c2ccc(F)cc2)cc1` the figure was 0.0794 µM [rising, full curve].
In the case of `NC(=O)/C(=N\OC(=O)c1ccco1)c1nc(-c2ccc(Br)cc2)cs1`, the AC50 runs as follows: under setting [1], 20 µM [falling, single point]; under setting [2], 22.4 µM [falling, single point].
Take `COCn1c(-c2cccc(Br)c2)nc2ccccc21`: the AC50 under setting [2] is 15.8 µM [rising, single point].
In the case of `CCn1cc(C(=O)NCC2CCCO2)c(=O)c2cc(S(=O)(=O)N3CCCCC3)ccc21` (stereo unspecified), the concentration at half-maximal activity (AC50) runs as follows: under setting [1], 11.2 µM [rising, single point]; under setting [2], 8.91 µM [rising, partial curve, poor fit].
`Cc1ccc(SCc2ccc(C(=O)NCc3cccnc3)cc2)cc1`: under setting [2], the AC50 is 35.5 µM [rising, single point].
Still for that read-out and setting: with `O=C(NCc1cccnc1)c1ccc(-c2ccc(Cl)cc2)o1` the figure was 14.1 µM [falling, partial curve, poor fit].
Same read-out and setting: with `Fc1ccc(N2CCN(c3ncnc4[nH]ncc34)CC2)cc1` the figure was 0.178 µM [falling, full curve, poor fit].
For `Cc1ccc(N2C(=O)c3ccccc3C2C(=O)c2cc(C)ccc2O)cc1` (stereo unspecified), the AC50 under setting [1] is 8.91 µM [rising, partial curve] and the AC50 under setting [2] is 11.2 µM [rising, partial curve].
Consider `Cc1occc1-c1nnc(SCC(=O)N2CCN(c3ccccc3F)CC2)n1C`, for which the AC50 is 35.5 µM [rising, single point] under setting [1] and 31.6 µM [rising, single point] under setting [2].
Take `CN(CC(=O)Nc1ccccc1Sc1ccccc1)C1CCCCC1`: the AC50 by setting is: under setting [1], 14.1 µM [rising, partial curve, poor fit]; under setting [2], 35.5 µM [rising, single point].
For the compound `O=C(CCCOc1ccccc1)Nc1ccc(S(=O)(=O)Nc2ccccn2)cc1`, the AC50 under setting [2] was 0.0112 µM [falling, full curve, poor fit].
`CCN1CCN(C(c2ccc(F)cc2)c2sc3nc(-c4ccco4)nn3c2O)CC1` (stereo unspecified): the concentration at half-maximal activity (AC50) reads like this: under setting [1], 5.62 µM [rising, single point]; under setting [2], 3.55 µM [rising, single point].
`COc1ccc(C(=O)C2CCCN(Cc3ccc4nonc4c3)C2)cc1F` (stereo unspecified): the AC50 by setting is: under setting [1], 12.6 µM [falling, single point]; under setting [2], 10 µM [falling, partial curve, poor fit].
Consider `CSc1ccc(/C=C/C(=O)c2ccc(NC(=O)Cc3ccccc3)cc2)cc1`, for which the AC50 under setting [1] was 15.8 µM [falling, single point] and the concentration at half-maximal activity (AC50) under setting [2] is 11.2 µM [falling, partial curve].
Regarding `Nc1ncnc2c1ncn2[C@@H]1O[C@H](CO)C[C@@H]1O`, under setting [1], the AC50 was 0.891 µM [falling, full curve, poor fit].
As for `CN(C)S(=O)(=O)c1cccc(NC(=O)c2ccc(N3CCOCC3)c([N+](=O)[O-])c2)c1`, the concentration at half-maximal activity (AC50) under setting [2] is 35.5 µM [rising, single point].
Same read-out and setting: with `COc1ccccc1NS(=O)(=O)c1ccc(NC(=O)Cc2cccs2)cc1` the figure was 14.1 µM [rising, single point]; with `Cc1cccc(CCNC(=O)CCS(=O)(=O)c2cc3c(cc2C)NC(=O)CO3)c1`, 0.141 µM [falling, full curve, poor fit].
On to `c1cncc(CN=C2Nc3ccccc3CS2)c1`, for which the half-maximal activity concentration (AC50) under setting [1] was 0.562 µM [falling, full curve, poor fit].
With `COC(=O)c1cc(=O)n(CCc2ccccc2F)c(=Nc2ccc(F)c(Cl)c2)s1`, the AC50 reads like this: under setting [1], 15.8 µM [falling, single point]; under setting [2], 28.2 µM [falling, single point].
